The target in the assay is T1, Signal-induced proliferation-associated 1 (SIPA1) (human (endogenous in BT549)) (UniProt Q96FS4).
T1 sequence: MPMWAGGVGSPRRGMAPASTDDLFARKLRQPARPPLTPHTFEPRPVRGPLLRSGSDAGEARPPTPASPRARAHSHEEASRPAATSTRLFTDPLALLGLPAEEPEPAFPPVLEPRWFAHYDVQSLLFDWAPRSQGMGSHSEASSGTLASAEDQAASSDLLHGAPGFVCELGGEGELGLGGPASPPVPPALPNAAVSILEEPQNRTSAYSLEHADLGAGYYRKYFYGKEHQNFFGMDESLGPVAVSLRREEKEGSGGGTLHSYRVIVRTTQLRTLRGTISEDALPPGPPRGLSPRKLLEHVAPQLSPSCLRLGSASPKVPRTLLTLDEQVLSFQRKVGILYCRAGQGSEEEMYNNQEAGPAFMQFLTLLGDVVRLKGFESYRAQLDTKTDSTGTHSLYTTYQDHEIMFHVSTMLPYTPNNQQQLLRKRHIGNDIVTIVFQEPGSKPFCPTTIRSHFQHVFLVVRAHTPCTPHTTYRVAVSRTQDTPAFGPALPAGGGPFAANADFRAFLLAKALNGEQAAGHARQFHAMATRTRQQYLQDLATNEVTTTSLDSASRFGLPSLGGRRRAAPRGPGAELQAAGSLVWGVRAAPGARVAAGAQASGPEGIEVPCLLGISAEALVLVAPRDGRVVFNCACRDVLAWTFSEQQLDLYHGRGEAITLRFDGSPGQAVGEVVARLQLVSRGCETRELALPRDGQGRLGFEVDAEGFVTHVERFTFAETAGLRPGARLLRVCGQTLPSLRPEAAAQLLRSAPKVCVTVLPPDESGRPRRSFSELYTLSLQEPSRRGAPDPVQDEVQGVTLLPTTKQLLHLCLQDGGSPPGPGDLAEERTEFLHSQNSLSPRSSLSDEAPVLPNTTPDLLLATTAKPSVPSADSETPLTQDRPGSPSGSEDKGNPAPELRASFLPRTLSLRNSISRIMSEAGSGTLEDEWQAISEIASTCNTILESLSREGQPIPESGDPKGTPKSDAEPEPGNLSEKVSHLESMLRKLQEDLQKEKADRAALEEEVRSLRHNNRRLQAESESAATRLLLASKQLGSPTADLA
Description: affinity purification with mass spectrometry; co-immunoprecipitation of SIPA1 and proteomics; hits listed in Table S1; cells not given.

Sequences of proteins named here, by UniProt entry; tags and fusion partners are left off.
UniProt Q14974: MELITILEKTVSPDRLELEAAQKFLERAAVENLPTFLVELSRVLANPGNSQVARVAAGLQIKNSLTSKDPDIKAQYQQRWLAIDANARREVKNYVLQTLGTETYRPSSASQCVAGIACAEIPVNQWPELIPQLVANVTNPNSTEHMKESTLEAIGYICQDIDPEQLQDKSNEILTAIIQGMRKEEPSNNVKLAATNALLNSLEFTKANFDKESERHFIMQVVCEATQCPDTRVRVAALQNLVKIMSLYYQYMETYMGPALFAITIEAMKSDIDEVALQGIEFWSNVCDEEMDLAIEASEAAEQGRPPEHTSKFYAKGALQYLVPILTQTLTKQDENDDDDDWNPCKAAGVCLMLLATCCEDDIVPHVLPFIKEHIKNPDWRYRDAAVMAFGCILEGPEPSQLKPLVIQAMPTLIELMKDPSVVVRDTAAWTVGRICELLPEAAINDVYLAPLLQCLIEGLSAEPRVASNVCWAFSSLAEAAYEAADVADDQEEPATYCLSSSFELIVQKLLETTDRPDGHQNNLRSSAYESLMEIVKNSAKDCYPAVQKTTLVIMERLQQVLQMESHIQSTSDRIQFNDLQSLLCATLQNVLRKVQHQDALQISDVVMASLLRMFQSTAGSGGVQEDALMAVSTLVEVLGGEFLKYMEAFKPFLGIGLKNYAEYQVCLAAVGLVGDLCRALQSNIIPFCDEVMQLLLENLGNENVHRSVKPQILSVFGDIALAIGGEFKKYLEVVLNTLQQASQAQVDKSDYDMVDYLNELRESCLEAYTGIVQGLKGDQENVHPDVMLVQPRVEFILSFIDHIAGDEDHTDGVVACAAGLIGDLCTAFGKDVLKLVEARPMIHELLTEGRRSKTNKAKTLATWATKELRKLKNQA

These are yes or no findings as the source states them, for the method shown. In cells and extracts the contact can be indirect. These calls come from enrichment with a bait or labelling near it, and not all partners need be listed.

As for importin β1 (from UniProt Q14974 1-876), the binding result is recorded as “binds”.
